According to paper PMC5397059 (PLoS ONE, 2017):
Non-standard residues stand in square brackets, D forms with d. *: point of attachment. Asn(Trt) = N[C@@H](CC(=O)NC(c1ccccc1)(c1ccccc1)c1ccccc1)C(=O)O; Pbf = Cc1c(C)c(S(=O)(=O)*)c(C)c2c1OC(C)(C)C2; Phe(4-Cl) = N[C@@H](Cc1ccc(Cl)cc1)C(=O)O; dPhe(4-Cl) = N[C@H](Cc1ccc(Cl)cc1)C(=O)O; NMeN = CN[C@@H](CC(N)=O)C(=O)O; NMeL = CN[C@@H](CC(C)C)C(=O)O; NMeV = CN[C@H](C(=O)O)C(C)C; dOrn = NCCC[C@@H](N)C(=O)O; Boc = CC(C)(C)OC(=O)*; tBu = CC(C)(C)*

test: general procedure: Fmoc solid-phase peptide synthesis; 2-chlorotrityl chloride; HATU/DIPEA in NMP; cyclisation in solution with HATU/HOBt/DIPEA; settings: whole synthesis, scale 0.3 mmol

Substance	crude yield [%]
H2N-Trp(Boc)-Leu-N-Me-D-Leu-Val-N-Me-Asn(Trt)-D-Orn(Boc)-COOH	95
H2N-Val-N-Me-Asn(Trt)-D-Orn(Boc)-Trp(Boc)-N-Me-Leu-D-Leu-COOH	96
H-V[Asn(Trt)][dOrn](Boc)[Phe(4-Cl)]L[dL]-OH	98
H-W(Boc)L[dL]IS(tBu)[dOrn](Boc)-OH	78
H-W(Boc)[NMeL][dL][NMeV][Asn(Trt)][dOrn](Boc)-OH	90
H-[dL]II[dOrn](Boc)W(Boc)L-OH	104
H-[dL]I[Asn(Trt)][dR](Pbf)W(Boc)L-OH	96
H-[dL]M[Asn(Trt)][dOrn](Boc)W(Boc)L-OH	96
H-[dL]V[dOrn](Boc)[dOrn](Boc)W(Boc)L-OH	95
H-[dL][NMeV][Asn(Trt)][dOrn](Boc)W(Boc)L-OH	93

same assay, conditions: whole synthesis, scale 0.5 mmol

Substance	crude yield [%]
H-W(Boc)[dOrn](Boc)[Asn(Trt)]V[dL]L-OH	92

test: general procedure: Fmoc solid-phase peptide synthesis; 2-chlorotrityl chloride resin; HATU/DIPEA in NMP; cyclisation in solution with HATU/HOBt/DIPEA; settings: cyclisation step

Substance	cyclisation yield [%]
cyclo([dL]II[dOrn](Boc)W(Boc)L)	54
cyclo([dL]V[dOrn](Boc)[dOrn](Boc)W(Boc)L)	40
cyclo([dL][NMeV][Asn(Trt)][dOrn](Boc)W(Boc)L)	60
cyclo([dPhe(4-Cl)]V[Asn(Trt)][dOrn](Boc)W(Boc)L)	53
cyclo([dPhe(4-Cl)][dOrn](Boc)[Asn(Trt)]V[dL]L)	43

same assay, conditions: late stage modification step

Substance	step yield [%]
cyclo([NMeL][dL]V[NMeN][dOrn]W) (SMILES CC(C)C[C@H]1NC(=O)[C@H](CC(C)C)N(C)C(=O)[C@H](Cc2c[nH]c3ccccc23)NC(=O)[C@@H](CCCN)NC(=O)[C@H](CC(N)=O)N(C)C(=O)[C@H](C(C)C)NC1=O)	60
cyclo([dOrn]WL[dL]VN) (SMILES CC(C)C[C@@H]1NC(=O)[C@H](Cc2c[nH]c3ccccc23)NC(=O)[C@@H](CCCN)NC(=O)[C@H](CC(N)=O)NC(=O)[C@H](C(C)C)NC(=O)[C@@H](CC(C)C)NC1=O)	91

same assay, conditions: late stage modification step, UPLC-MS (UV)

Substance	final HPLC purity [%]
cyclo([NMeL][dL]V[NMeN][dOrn]W) (SMILES CC(C)C[C@H]1NC(=O)[C@H](CC(C)C)N(C)C(=O)[C@H](Cc2c[nH]c3ccccc23)NC(=O)[C@@H](CCCN)NC(=O)[C@H](CC(N)=O)N(C)C(=O)[C@H](C(C)C)NC1=O)	97
cyclo([dOrn]WL[dL]VN) (SMILES CC(C)C[C@@H]1NC(=O)[C@H](Cc2c[nH]c3ccccc23)NC(=O)[C@@H](CCCN)NC(=O)[C@H](CC(N)=O)NC(=O)[C@H](C(C)C)NC(=O)[C@@H](CC(C)C)NC1=O)	99.9
